Experimental data taken from patent US5331089A (Merck Sharpe & Dohme, Ltd., priority 1988, dated 1994).

Experiment: general procedure: Fmoc solid-phase peptide synthesis; Polydimethylacrylamide resin (Cambridge Research Biochemicals) with 4-hydroxymethylbenzoic acid linker; preformed symmetrical anhydrides; DCC/HOBt; ONp active esters
Settings: analytical hplc
[1] = whole synthesis, scale of the general procedure 2.96 mmol

| Substance | final HPLC purity [1] [%] | final HPLC purity (cyclisation step) [%] |
| --- | --- | --- |
| Cyclo (Gly-Gln-Trp-Phe-(R)Gly[ANC]Leu-Met) | 97 | – |
| Cyclo(Gln-Npa-Phe-(R)Gly[ANC-2]Leu-Met) | 98 | – |
| PEPTIDE1{Q.W.F.G.L.M}$PEPTIDE1,PEPTIDE1,6:R2-1:R1$$$V2.0 | >98 | – |
| cyclo (Gln-Trp-Phe(R)Gly [ANC-2]Leu-Met) | – | 92 |

Strings that start with PEPTIDE1 are HELM notation: dots part the residues, brackets hold end groups and non-standard residues.
